From article PMC7819943, “Rice protein-binding microarrays: a tool to detect cis-acting elements near promoter regions in rice”
The other results are listed elsewhere or left out.

The sequences below were run against T1, OsSMF1 (Oryza sativa, UniProt Q6ZLB0 1-436) (assay: protein-binding microarray (RPBM); PBS, 2% BSA, 51.3 ng/ul salmon testes DNA, 50 uM zinc acetate, 200 nM TF, 25 C, 1 h; high values mean tight binding). Settings: protein: recombinant; tags: N-terminal polyhistidine and DsRed monomer fusion (pET32a); chain copies: 2; label: CyDye5-dUTP incorporated in the synthesized complementary strand; 3' TTTTT single-stranded linker to array surface; dsDNA, one strand shown.
T1 sequence: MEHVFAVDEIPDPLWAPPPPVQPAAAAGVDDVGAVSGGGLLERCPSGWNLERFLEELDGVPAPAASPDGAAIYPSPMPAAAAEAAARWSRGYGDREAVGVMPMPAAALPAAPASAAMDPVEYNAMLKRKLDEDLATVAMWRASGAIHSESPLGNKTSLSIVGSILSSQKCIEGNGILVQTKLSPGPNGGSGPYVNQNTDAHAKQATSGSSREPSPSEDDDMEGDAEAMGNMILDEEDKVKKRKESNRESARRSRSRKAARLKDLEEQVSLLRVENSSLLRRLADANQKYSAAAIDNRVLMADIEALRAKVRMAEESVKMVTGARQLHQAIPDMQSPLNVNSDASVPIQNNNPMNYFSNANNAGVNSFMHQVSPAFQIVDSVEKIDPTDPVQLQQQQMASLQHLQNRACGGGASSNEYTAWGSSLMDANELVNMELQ
How it was run: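 Per-feature fluorescence intensity (arbitrary units), read on an Axon 4000B scanner, is the binding signal. Transcription factors carrying an N-terminal polyhistidine tag and DsRed fusion were expressed in E. coli BL21-CodonPlus and purified on Ni–NTA. A custom Agilent array, made double-stranded by primer extension with Cy5-dUTP and blocked with 2% BSA, was incubated with 200 nM protein in PBS, 2% BSA, salmon testes DNA and 50 µM zinc acetate at 25 °C for 1 h and then washed.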

Question: For “CATCATCAGGATCATCTCCCTGCCGCCGCCGCCGAGTGAACGGAGTCACCTAGTGCAG”, which binding signal is on record?
Answer: 4430 fluorescence intensity (a.u.)

Question: “ACCGATTAACCCTTAGTTCTGCCACCTCACTTCATATTACCGGAGTCACCTAGTGCAG” was tested. Which binding signal did it give?
Answer: 8680 fluorescence intensity (a.u.)

Question: For “CGCCTTCCTCCCAATCTTGTTGTTTCGGCGGCGGCGGCGGCGGAGTCACCTAGTGCAG”, which binding signal is on record?
Answer: 3420 fluorescence intensity (a.u.)

Question: With “AGCTGGTAGCTGCTGCCGGTGGTGCCGATCGACTGCCGGACGGAGTCACCTAGTGCAG” as the sequence, how does the binding signal read?
Answer: 4990 fluorescence intensity (a.u.)

Question: With “CCCGGGAGATGCCATGCTGGCAGGTGGGCCCCACGCCAGGCGGAGTCACCTAGTGCAG” as the sequence, how does the binding signal read?
Answer: 5050 fluorescence intensity (a.u.)

Question: With “TGTCTCGTTTGATTCGACTGTGACTGATGAAATCGTGGTTCGGAGTCACCTAGTGCAG” as the sequence, how does the binding signal read?
Answer: 3260 fluorescence intensity (a.u.)

Question: “CACCACTGACCACACCCTCTCGTCCGCGTGACATCTGGATCGGAGTCACCTAGTGCAG” was tested. Which binding signal did it give?
Answer: 3940 fluorescence intensity (a.u.)

Question: Which binding signal does the source give for “AACCACGCTTTCCTATGGCCCACCTGTCATGTAATCAGTTCGGAGTCACCTAGTGCAG” here?
Answer: 5290 fluorescence intensity (a.u.)

Question: How did the binding signal turn out when “GCAGCCACGTCTCCTCCACCACCTCGTCTCCCTCTCGAGACGGAGTCACCTAGTGCAG” was run?
Answer: 4450 fluorescence intensity (a.u.)

Question: For “TAATGGGCGGTAGTAGATCCACGTAGGCGCGCGTAATTGGCGGAGTCACCTAGTGCAG”, which binding signal is on record?
Answer: 12700 fluorescence intensity (a.u.)

Question: “TTTTCATATTGAAATGGTGTGTAAGCGCCACATAGGCGCTCGGAGTCACCTAGTGCAG” was tested. Which binding signal did it give?
Answer: 6290 fluorescence intensity (a.u.)

Question: “TCAGAACAGTACACCCGTCACAGTTATTTGATCGCCTGTGCGGAGTCACCTAGTGCAG” was tested. Which binding signal did it give?
Answer: 3770 fluorescence intensity (a.u.)

Question: Which binding signal does the source give for “GTCGATCCATGTCACTGACCTGCACGTTTAATTATAGCCACGGAGTCACCTAGTGCAG” here?
Answer: 5380 fluorescence intensity (a.u.)

Question: How did the binding signal turn out when “TCGGTGCCAAATTAGGCTGACAAGGAGAAAATTTCATGCCCGGAGTCACCTAGTGCAG” was run?
Answer: 3360 fluorescence intensity (a.u.)

Question: How did the binding signal turn out when “GAAGTGTTAGCTAGCTAGGCATGTAGACACCTGGCATGGCCGGAGTCACCTAGTGCAG” was run?
Answer: 3360 fluorescence intensity (a.u.)

Question: With “CGATGAGGAGGAGGAGGGGCAACAGTGTTAGGGTGGATTTCGGAGTCACCTAGTGCAG” as the sequence, how does the binding signal read?
Answer: 3140 fluorescence intensity (a.u.)

Question: “CTAATTACATATGTAAGTGGGGTGTAAATGAGGTGTAACTCGGAGTCACCTAGTGCAG” was tested. Which binding signal did it give?
Answer: 5770 fluorescence intensity (a.u.)

Question: “GGGAGTACATTTCTATTAGTTGCCAGATGAGAATTTGCAACGGAGTCACCTAGTGCAG” was tested. Which binding signal did it give?
Answer: 3470 fluorescence intensity (a.u.)

Question: “ACCTGGGAGCTTGCTGACCTCCCTCGTGGTCACCGCGCGACGGAGTCACCTAGTGCAG” was tested. Which binding signal did it give?
Answer: 3340 fluorescence intensity (a.u.)

Question: “TAGATTGCTATCTTTCCCGGGTTTCTCCCCGTCCGCGCGGCGGAGTCACCTAGTGCAG” was tested. Which binding signal did it give?
Answer: 21900 fluorescence intensity (a.u.)

Question: For “GCCGCAACGCATCCGTCGGCGCTGCTCCCGACTGAAGATTCGGAGTCACCTAGTGCAG”, which binding signal is on record?
Answer: 3500 fluorescence intensity (a.u.)

Question: For “AGGTTTGTTATGGACCTATTCGTAAACAAATAGGTCCAACCGGAGTCACCTAGTGCAG”, which binding signal is on record?
Answer: 31800 fluorescence intensity (a.u.)

Question: Which binding signal does the source give for “CGTTCCCCTCCGCCGCTTGCGTGGACTAGTGGACGCCCACCGGAGTCACCTAGTGCAG” here?
Answer: 7820 fluorescence intensity (a.u.)

Question: How did the binding signal turn out when “CTGCGGTTGCATTGCATGGAGATGGACCCTCAACCAGCTACGGAGTCACCTAGTGCAG” was run?
Answer: 3700 fluorescence intensity (a.u.)

Question: How did the binding signal turn out when “TTGCTTGTGTGCTGTTGTCGTGCGTGACTAATGTACCAGCCGGAGTCACCTAGTGCAG” was run?
Answer: 3760 fluorescence intensity (a.u.)

Question: “ACCCGGGCCAGCTCACCGCCAGCCCAAACCCCGCAGCCGACGGAGTCACCTAGTGCAG” was tested. Which binding signal did it give?
Answer: 3970 fluorescence intensity (a.u.)

Question: With “CCCTGCCCGAAACGTGTCACGGCCCATCTCGTGCTCGAAACGGAGTCACCTAGTGCAG” as the sequence, how does the binding signal read?
Answer: 4560 fluorescence intensity (a.u.)

Question: With “CAAGCATGTGATGTGAATGGGCAGTCGACGTGGACGGCTACGGAGTCACCTAGTGCAG” as the sequence, how does the binding signal read?
Answer: 7550 fluorescence intensity (a.u.)

Question: “AATCATGCAATAATACAAGCTTCGTTTTGCGTGCCGGGAACGGAGTCACCTAGTGCAG” was tested. Which binding signal did it give?
Answer: 3210 fluorescence intensity (a.u.)

Question: For “CGGTAGTATAAGGTTTATCTGTTTCCTGACGTTTGATTTGCGGAGTCACCTAGTGCAG”, which binding signal is on record?
Answer: 3600 fluorescence intensity (a.u.)

Question: “TAAGCCCTATGGGCTTACAGCCCACGTGTCGGCCCAACTCCGGAGTCACCTAGTGCAG” was tested. Which binding signal did it give?
Answer: 9490 fluorescence intensity (a.u.)

Question: With “CACTTCTCCAGTAATGGAGGGATTGATCGGGGTGACGTGGCGGAGTCACCTAGTGCAG” as the sequence, how does the binding signal read?
Answer: 34900 fluorescence intensity (a.u.)

Question: With “CCCTCATCGCCGGCCGGCCGTCGGACCTCCATGCCCCGGCCGGAGTCACCTAGTGCAG” as the sequence, how does the binding signal read?
Answer: 4250 fluorescence intensity (a.u.)

Question: For “GGCGAGGAGGTGTGCCACGTCAGGATTTTGCTACAGTATGCGGAGTCACCTAGTGCAG”, which binding signal is on record?
Answer: 11700 fluorescence intensity (a.u.)

Question: Which binding signal does the source give for “GCCATGTGGTTTAATAAAAGTCAAATCCTTGTTCTGATAACGGAGTCACCTAGTGCAG” here?
Answer: 3230 fluorescence intensity (a.u.)

Question: “TTGCTCTTAGCAAACCAGATCGTGTCACCTGCTGGGGTTACGGAGTCACCTAGTGCAG” was tested. Which binding signal did it give?
Answer: 4520 fluorescence intensity (a.u.)

Question: Which binding signal does the source give for “AGCCGGAGCGGTCGAGCCGCCGCGGCCTCGTCGGCGTGGACGGAGTCACCTAGTGCAG” here?
Answer: 3950 fluorescence intensity (a.u.)

Question: With “ACACTACTGGCACCTACATACGTGGCGGGGCGCTCCGGTGCGGAGTCACCTAGTGCAG” as the sequence, how does the binding signal read?
Answer: 6990 fluorescence intensity (a.u.)

Question: Which binding signal does the source give for “GCAGAGTTTCCGGTTGCCACCGCACCCGTCATGCTTCTTCCGGAGTCACCTAGTGCAG” here?
Answer: 4120 fluorescence intensity (a.u.)

Question: “CCACTGTTGCATGACAATAACATCATGTGAATCAGCACAGCGGAGTCACCTAGTGCAG” was tested. Which binding signal did it give?
Answer: 5860 fluorescence intensity (a.u.)

Question: With “TCAGACCGACAAGGCATTGCGTGGCACAGGTCGTACACTCCGGAGTCACCTAGTGCAG” as the sequence, how does the binding signal read?
Answer: 5110 fluorescence intensity (a.u.)

Question: “TTGTTTGCTTATACAGTGACTGTCCGTGCATTAGTGGAAACGGAGTCACCTAGTGCAG” was tested. Which binding signal did it give?
Answer: 4660 fluorescence intensity (a.u.)

Question: With “CCGCCATGCGCACAATCCACGTGTCACGTCACCCTCCTCACGGAGTCACCTAGTGCAG” as the sequence, how does the binding signal read?
Answer: 21400 fluorescence intensity (a.u.)

Question: How did the binding signal turn out when “GCAATCCTTAACTCCTTCCCTGACGCAGCCTCCATGCATCCGGAGTCACCTAGTGCAG” was run?
Answer: 3260 fluorescence intensity (a.u.)

Question: With “TCTTCTCCCTAGTCCAAGTTGCAACCTTGGTAAACATAAGCGGAGTCACCTAGTGCAG” as the sequence, how does the binding signal read?
Answer: 3190 fluorescence intensity (a.u.)

Question: Which binding signal does the source give for “GAAAACAAACAACTGGTGATGACTGATGACTCAGTTTCCGCGGAGTCACCTAGTGCAG” here?
Answer: 6160 fluorescence intensity (a.u.)

Question: “CTTCCATCCGCCTGCTGCCGCTGGCACGTCGGGACGTAGGCGGAGTCACCTAGTGCAG” was tested. Which binding signal did it give?
Answer: 3370 fluorescence intensity (a.u.)

Question: With “ATAGACCCGCCCAAGTGAAGAGCAACAAGGTGACGTGGCACGGAGTCACCTAGTGCAG” as the sequence, how does the binding signal read?
Answer: 23600 fluorescence intensity (a.u.)

Question: Which binding signal does the source give for “GCACTGGGATTTTATGCGTAATACATGTGGAAAATTTTCCCGGAGTCACCTAGTGCAG” here?
Answer: 3710 fluorescence intensity (a.u.)

Question: With “GTCGTTTGATGATAATGCCCACTCTATTACGTGGCCTGAACGGAGTCACCTAGTGCAG” as the sequence, how does the binding signal read?
Answer: 7830 fluorescence intensity (a.u.)

Question: How did the binding signal turn out when “GTTCGTGCGTTTTCTTGGATGAGATTTGGGGTGACGTCCTCGGAGTCACCTAGTGCAG” was run?
Answer: 4700 fluorescence intensity (a.u.)

Question: Which binding signal does the source give for “ACGGAGGTAGTATAAGATGTGTCACATCCGCACAATATCTCGGAGTCACCTAGTGCAG” here?
Answer: 4880 fluorescence intensity (a.u.)

Question: With “GTCAGCCCACATCAAACCGTTCGTCTCGGGAAGCCACCGCCGGAGTCACCTAGTGCAG” as the sequence, how does the binding signal read?
Answer: 20100 fluorescence intensity (a.u.)

Question: Which binding signal does the source give for “TTTTCCAATTTTCCACCTGTGTCACCAATCAATGGAAGTACGGAGTCACCTAGTGCAG” here?
Answer: 3900 fluorescence intensity (a.u.)
